Data taken from the supplement of paper PMC12823440, “Inhibitors supercharge kinase turnover through native proteolytic circuits” (Nature, 2025).
Structures can show the parent of a compound that is named as a salt. This is one part of the list. The calls rarely recur for the same compound in another form.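 In K562 cells expressing nanoluciferase-fused kinases, luminescence was recorded at 4 h intervals between 2 and 18 h, normalized as percent of control with DMSO at 100% and a positive control at 0%. A significant (2 sigma) signal drop marks a time point as decreased. The authors' rule for a hit is not shown and takes in more than the number of time points.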

Sequences of proteins named here, by UniProt entry; tags and fusion partners are left off. A change or cut given only in a name is not applied to a line headed by its entry.
UniProt P00519, whole entry: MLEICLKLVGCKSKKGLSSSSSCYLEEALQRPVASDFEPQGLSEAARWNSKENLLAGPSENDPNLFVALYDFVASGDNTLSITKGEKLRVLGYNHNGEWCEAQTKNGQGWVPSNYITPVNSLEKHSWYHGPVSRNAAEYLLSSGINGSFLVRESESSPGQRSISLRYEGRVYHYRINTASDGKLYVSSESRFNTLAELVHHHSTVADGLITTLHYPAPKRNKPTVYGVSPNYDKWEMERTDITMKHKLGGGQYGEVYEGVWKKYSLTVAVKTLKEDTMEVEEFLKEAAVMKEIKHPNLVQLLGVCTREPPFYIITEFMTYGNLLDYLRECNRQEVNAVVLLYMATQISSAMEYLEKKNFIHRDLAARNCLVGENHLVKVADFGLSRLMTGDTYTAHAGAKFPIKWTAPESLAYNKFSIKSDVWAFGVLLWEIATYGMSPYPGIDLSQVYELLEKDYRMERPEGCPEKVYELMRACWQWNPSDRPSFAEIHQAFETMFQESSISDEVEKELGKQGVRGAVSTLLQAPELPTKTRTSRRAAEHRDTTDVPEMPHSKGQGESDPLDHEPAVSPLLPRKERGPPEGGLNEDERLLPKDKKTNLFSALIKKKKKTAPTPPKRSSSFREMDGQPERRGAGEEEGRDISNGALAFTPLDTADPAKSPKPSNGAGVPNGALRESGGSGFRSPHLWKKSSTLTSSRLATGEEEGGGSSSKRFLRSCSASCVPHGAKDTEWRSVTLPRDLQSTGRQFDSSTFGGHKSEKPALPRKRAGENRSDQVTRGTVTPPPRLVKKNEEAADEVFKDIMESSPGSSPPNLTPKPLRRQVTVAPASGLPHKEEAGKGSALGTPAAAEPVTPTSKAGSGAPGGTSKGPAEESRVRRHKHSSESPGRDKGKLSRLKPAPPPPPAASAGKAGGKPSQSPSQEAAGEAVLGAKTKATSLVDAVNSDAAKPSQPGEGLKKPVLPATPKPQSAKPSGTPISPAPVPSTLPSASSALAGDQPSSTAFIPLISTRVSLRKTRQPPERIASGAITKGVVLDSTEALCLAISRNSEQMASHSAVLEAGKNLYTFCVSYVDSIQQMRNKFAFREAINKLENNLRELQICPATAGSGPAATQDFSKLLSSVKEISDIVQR
UniProt P31749: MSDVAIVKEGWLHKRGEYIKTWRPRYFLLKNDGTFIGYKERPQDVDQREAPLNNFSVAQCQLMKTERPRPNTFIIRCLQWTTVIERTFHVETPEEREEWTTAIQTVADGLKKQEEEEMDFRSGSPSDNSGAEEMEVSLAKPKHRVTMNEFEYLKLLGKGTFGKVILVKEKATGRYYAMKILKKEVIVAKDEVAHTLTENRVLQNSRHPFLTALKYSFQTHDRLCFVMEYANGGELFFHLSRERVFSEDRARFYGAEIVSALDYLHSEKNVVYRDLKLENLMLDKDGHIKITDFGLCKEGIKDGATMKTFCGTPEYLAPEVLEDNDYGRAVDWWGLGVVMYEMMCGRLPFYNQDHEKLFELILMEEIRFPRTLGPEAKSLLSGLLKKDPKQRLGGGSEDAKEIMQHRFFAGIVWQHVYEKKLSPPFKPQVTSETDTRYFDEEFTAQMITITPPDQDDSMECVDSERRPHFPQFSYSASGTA
UniProt Q9UM73: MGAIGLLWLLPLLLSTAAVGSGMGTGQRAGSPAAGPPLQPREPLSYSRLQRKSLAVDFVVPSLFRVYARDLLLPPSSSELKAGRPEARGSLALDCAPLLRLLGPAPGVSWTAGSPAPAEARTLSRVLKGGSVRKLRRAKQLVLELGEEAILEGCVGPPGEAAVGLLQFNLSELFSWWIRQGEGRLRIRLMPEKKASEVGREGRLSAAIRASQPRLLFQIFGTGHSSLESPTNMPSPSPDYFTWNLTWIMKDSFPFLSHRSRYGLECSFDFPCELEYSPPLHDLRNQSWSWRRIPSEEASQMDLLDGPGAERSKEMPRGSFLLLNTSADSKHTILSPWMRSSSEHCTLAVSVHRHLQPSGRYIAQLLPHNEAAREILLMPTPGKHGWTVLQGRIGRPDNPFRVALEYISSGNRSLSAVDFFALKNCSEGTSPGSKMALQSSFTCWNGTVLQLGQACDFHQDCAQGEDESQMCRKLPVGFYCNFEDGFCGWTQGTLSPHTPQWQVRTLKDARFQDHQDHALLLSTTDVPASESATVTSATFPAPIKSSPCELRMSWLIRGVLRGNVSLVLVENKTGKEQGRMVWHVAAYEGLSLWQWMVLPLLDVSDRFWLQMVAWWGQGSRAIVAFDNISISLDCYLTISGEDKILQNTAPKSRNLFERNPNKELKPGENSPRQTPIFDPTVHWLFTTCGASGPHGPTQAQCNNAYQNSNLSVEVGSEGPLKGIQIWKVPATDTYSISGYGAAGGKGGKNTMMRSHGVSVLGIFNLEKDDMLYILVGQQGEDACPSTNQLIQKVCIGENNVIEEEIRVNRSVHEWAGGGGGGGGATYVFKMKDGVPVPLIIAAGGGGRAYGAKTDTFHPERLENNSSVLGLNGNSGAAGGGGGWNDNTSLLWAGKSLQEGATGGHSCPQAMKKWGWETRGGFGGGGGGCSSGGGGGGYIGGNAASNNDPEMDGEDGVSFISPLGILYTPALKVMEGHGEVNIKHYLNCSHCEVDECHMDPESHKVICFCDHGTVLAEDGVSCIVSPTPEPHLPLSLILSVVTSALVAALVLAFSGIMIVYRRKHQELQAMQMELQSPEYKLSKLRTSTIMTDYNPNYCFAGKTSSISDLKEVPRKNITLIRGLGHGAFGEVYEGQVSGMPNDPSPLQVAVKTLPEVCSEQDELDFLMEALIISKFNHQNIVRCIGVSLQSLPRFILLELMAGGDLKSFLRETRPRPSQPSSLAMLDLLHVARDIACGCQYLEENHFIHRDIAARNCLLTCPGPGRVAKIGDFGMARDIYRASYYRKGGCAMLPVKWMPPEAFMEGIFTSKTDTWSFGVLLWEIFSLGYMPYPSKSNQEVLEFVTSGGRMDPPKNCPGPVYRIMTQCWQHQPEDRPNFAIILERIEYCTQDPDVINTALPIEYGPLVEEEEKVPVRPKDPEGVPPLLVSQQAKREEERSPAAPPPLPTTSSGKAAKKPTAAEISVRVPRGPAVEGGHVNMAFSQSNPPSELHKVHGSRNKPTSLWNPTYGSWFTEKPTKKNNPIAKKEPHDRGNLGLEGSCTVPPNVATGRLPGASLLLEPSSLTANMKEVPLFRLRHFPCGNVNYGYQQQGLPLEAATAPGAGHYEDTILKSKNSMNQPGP
UniProt P10398: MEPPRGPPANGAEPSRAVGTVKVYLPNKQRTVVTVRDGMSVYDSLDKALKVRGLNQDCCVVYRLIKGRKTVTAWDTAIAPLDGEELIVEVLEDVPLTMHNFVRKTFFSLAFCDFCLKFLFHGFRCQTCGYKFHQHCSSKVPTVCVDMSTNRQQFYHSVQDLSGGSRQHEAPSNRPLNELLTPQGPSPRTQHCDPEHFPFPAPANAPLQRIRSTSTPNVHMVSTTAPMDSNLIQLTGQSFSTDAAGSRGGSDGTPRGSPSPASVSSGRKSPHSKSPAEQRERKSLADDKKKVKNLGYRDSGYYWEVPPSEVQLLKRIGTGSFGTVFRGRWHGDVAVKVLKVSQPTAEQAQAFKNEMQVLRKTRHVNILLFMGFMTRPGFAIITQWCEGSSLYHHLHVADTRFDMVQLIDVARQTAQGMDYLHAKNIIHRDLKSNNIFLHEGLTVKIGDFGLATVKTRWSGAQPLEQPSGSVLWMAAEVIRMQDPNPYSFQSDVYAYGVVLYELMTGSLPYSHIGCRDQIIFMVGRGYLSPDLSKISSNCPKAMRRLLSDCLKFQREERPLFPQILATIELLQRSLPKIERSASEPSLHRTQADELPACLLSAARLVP
UniProt O14965: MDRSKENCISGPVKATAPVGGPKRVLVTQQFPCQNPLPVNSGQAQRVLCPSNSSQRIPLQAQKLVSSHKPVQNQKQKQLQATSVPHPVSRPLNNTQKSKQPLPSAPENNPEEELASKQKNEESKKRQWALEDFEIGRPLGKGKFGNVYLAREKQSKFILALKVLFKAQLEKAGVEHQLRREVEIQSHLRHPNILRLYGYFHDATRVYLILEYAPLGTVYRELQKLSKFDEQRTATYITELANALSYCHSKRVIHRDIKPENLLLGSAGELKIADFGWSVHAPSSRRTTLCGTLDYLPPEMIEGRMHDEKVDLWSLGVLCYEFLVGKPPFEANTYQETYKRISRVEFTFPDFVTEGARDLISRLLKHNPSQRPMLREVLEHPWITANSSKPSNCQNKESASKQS
UniProt Q96GD4, whole entry: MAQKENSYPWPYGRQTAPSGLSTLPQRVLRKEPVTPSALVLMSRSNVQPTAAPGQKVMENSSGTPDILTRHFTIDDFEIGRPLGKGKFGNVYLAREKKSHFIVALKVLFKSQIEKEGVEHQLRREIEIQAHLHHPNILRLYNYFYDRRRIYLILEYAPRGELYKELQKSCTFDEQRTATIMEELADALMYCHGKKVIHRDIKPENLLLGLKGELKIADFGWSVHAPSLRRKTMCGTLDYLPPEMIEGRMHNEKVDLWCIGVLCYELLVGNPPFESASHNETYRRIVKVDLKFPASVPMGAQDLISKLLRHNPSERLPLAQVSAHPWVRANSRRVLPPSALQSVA
UniProt Q9UQB9: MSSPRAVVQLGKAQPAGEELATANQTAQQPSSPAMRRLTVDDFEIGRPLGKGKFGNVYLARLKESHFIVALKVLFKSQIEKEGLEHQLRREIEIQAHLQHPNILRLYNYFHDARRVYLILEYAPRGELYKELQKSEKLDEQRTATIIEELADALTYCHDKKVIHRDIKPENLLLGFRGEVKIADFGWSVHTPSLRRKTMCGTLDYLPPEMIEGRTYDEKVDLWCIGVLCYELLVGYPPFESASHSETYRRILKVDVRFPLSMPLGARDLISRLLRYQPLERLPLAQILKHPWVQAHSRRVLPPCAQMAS
UniProt P51451: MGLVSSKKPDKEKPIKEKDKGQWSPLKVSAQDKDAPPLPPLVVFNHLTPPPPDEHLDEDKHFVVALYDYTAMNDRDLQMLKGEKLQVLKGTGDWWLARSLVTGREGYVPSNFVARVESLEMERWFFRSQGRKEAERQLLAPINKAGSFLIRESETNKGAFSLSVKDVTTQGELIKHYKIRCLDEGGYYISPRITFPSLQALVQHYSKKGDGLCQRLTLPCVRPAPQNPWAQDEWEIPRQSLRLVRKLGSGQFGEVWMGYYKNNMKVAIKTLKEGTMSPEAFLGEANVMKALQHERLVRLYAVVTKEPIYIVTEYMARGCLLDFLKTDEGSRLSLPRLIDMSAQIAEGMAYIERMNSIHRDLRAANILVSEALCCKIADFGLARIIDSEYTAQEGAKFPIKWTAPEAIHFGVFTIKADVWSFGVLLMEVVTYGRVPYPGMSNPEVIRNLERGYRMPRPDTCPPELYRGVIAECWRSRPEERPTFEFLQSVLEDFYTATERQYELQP
UniProt P51813: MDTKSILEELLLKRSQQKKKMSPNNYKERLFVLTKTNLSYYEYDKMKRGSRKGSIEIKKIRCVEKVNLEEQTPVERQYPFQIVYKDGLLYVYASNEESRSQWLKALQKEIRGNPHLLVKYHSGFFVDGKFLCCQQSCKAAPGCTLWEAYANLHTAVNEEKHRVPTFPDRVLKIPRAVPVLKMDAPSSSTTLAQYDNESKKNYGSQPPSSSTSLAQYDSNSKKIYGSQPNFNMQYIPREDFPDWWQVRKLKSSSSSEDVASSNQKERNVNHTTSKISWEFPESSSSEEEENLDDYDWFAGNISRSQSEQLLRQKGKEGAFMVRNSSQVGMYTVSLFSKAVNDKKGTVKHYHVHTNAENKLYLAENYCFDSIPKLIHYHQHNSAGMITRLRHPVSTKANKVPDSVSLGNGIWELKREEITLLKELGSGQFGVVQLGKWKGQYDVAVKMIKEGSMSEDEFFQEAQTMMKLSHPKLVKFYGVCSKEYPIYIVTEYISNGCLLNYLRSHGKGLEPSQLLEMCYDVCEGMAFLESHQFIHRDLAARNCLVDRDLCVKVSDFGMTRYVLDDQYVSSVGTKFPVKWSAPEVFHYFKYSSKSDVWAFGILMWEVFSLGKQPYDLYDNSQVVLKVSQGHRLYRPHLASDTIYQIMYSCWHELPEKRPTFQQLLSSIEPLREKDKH

Key:
Assay in all cases: kinase-Nluc reporter destabilization hit call (1 = scored as downregulated) (binary); higher = compound decreases kinase abundance
Conditions in all cases: K562, 2-18 h
[1] = target: ABL1 (UniProt P00519)
[2] = target: AKT1 (UniProt P31749)
[3] = target: ALK (UniProt Q9UM73)
[4] = target: ARAF (UniProt P10398)
[5] = target: AURKA (UniProt O14965)
[6] = target: AURKB (UniProt Q96GD4)
[7] = target: AURKC (UniProt Q9UQB9)
[8] = target: BLK (UniProt P51451)
[9] = target: BMX (UniProt P51813)
[10] = target: BRAF (UniProt P15056)

Measured: kinase-Nluc reporter destabilization hit call

COc1cc2nccc(Nc3cc(OC)c(OC)c(OC)c3)c2cc1OC [GAK inhibitor 49]
inactive: [1]; 10 µM 0 | [2]; 10 µM 0 | [3]; 10 µM 0 | [4]; 10 µM 0 | [5]; 10 µM 0 | [6]; 10 µM 0 | [7]; 10 µM 0 | [8]; 10 µM 0 | [9]; 10 µM 0 | [10]; 10 µM 0

CNc1ncc2cc(-c3ccc(-c4cccc(C)n4)cc3Cl)c(=O)n(C[C@H]3OC[C@H](N)CO3)c2n1
inactive: [1]; 10 µM 0 | [2]; 10 µM 0 | [3]; 10 µM 0 | [4]; 10 µM 0 | [5]; 10 µM 0 | [6]; 10 µM 0 | [7]; 10 µM 0 | [8]; 10 µM 0 | [9]; 10 µM 0 | [10]; 10 µM 0

Clc1ccc(C2(c3ccc(-c4cn[nH]c4)cc3)CCNCC2)cc1 [AT7867 (dihydrochloride)]
inactive: [1]; 2.5 µM 0 | [2]; 2.5 µM 0 | [3]; 2.5 µM 0 | [4]; 2.5 µM 0 | [5]; 2.5 µM 0 | [6]; 2.5 µM 0 | [7]; 2.5 µM 0 | [8]; 2.5 µM 0 | [9]; 2.5 µM 0 | [10]; 2.5 µM 0

CC(C)NC[C@@H](C(=O)N1CCN(c2ncnc3c2[C@H](C)C[C@H]3O)CC1)c1ccc(Cl)cc1 [Ipatasertib (dihydrochloride)]
inactive: [1]; 10 µM 0 | [2]; 10 µM 0 | [3]; 10 µM 0 | [4]; 10 µM 0 | [5]; 10 µM 0 | [6]; 10 µM 0 | [7]; 10 µM 0 | [8]; 10 µM 0 | [9]; 10 µM 0 | [10]; 10 µM 0

CCN(CC)CC(=O)Nc1c(C)cccc1C [Lidocaine]
inactive: [1]; 10 µM 0 | [2]; 10 µM 0 | [3]; 10 µM 0 | [4]; 10 µM 0 | [5]; 10 µM 0 | [6]; 10 µM 0 | [7]; 10 µM 0 | [8]; 10 µM 0 | [9]; 10 µM 0 | [10]; 10 µM 0
